Tests used:
[1] = tested on: male C57Bl/6 mice with myocardial infarct
Description: FIGS. 5A-D. Mouse MI model. Representative mouse EKG tracings pre (FIG. 5A) and post (FIG. 5B) coronary artery ligation. […] Arrows mark lateral and posterior left ventricle (LV). LVIDD, LVIDS=LV internal diameter at systole and […], respectively. RV=right ventricle. […] Cardiac dimensions were obtained from 2-D guided M-mode images (100 frames/sec) and were read blinded using short axis and a parasternal long-axis views with the leading edge method. All echo measurements were averaged over 3 consecutive beats on unsedated mice at 7 and 30 days after infarction. Statistical significance assessed by the Wilcoxon rank sum test.
(§1) Myocardial infarcts were induced in male C57Bl/6 mice by coronary ligation (FIG. 5) as previously described (Alfaro et al., 2008).
Ventricular remodeling and cardiac functional parameters will be assessed by echo.
Mammalian cardiomyocytes irreversibly withdraw from the cell cycle soon after birth and undergo terminal differentiation. […] Therefore, cardiac injury causes permanent myocardial loss and cardiac dysfunction. […] Proliferation was assessed by immunostaining for Ki-67. […] Phosphorylation of histone 3 (pH3) on Ser 10 is an established cellular marker for chromosome condensation during mitotic prophase (van Amerongen and Engel, 2008).

mice = conditions: IV or IP, levels high enough for Wnt-inhibitory plasma levels
Description: as §1

Compound: Cc1cc(/C=C/c2ccc3cc(N(C)C)ccc3[n+]2C)c(C)n1-c1ccccc1 [pyrvinium]
- LVIDD, LVIDS, IVSS, IVSD percentage difference days 7 to 30, compared to Cmpd 211 ([1]; echo, single 200 nM injection): smaller
- Mice with lethal toxicity, died within the first 24 hours ([1]; male, mouse, in vivo): 15 mice
- Time to death in most mice (mice): 24 to 48 h

From US9175090B2, “Methods of using an antibody to inhibit WNT-mediated signaling in cancer” (Vanderbilt University, priority 2011, dated 2015)
